Assay results taken from patent US8946219B2, “Combination therapy with a compound acting as a platelet ADP receptor inhibitor” (Portola Pharmaceuticals, Inc., priority 2007, dated 2015).
At least one structure is not confirmed: it was looked up by name or label, or the drawing left a doubt. Some entries share one result that the patent states for a list of compounds.

Tests used:
[1] = test system: thrombosis on mouse mesenteric arteries; assay: Mouse mesenteric artery thrombosis model, 5% FeCl3 (Example 13, present tense); type: in vivo, C57B16J mice
Procedure: Thrombosis on mouse mesenteric arteries (shear rate 1000-1300 s^−1) is performed and recorded as previously described with minor modifications, as described in Andre, P. et al., Anticoagulants (thrombin inhibitors) and aspirin synergize with P2Y12 receptor antagonism in thrombosis. Circulation, 2003, 108(21):2697-703. Platelets are labeled in situ using rhodamine 6G (0.2 mg/mL) administered through the tail vein 10 mins before visualization of the arteries. Vessel-wall injury is triggered by a 1×1-mm filter paper saturated with a 5% FeCl3 solution. After 5 minutes, the filter paper is removed and mesenteric arteries rinsed with warmed saline (37° C.). Platelet vessel-wall interactions are recorded for 40 additional mins or until full occlusion occurs and persists for more than 40 seconds. C57B16J mice are orally gavaged with vehicle control, Compound A (7.5, 20, 60 mg/kg) or betrixaban (4, 40, 400 mg/kg) two hours prior to vascular injury. Thrombosis is analyzed in real time using Simple PCI software, as described in Andre, P. et al., P2Y12 regulates platelet adhesion/activation, thrombus growth, and thrombus stability in injured arteries. J Clin Invest, 2003, 112(3):398-406. The fluorescence intensity is recorded at a rate of 2 Hz for 40 minutes and plotted over time. Time to occlusion (cessation of blood flow) is analyzed.

[2] = test system: ADP induced platelet aggregation in human platelet rich plasma; assay: ADP induced platelet aggregation; type: cell-based; conditions: Compound A at 1.1 μM
[3] = test system: thrombosis on mouse mesenteric arteries; assay: Mouse mesenteric artery thrombosis model, intravital microscopy, 10% FeCl3 (Example 14); type: in vivo, C57B16J mice
Procedure: Thrombosis on mouse mesenteric arteries (shear rate 1000-1300 s^−1) was performed and recorded as previously described with minor modifications. (Andre, P., et al., Anticoagulants (thrombin inhibitors) and aspirin synergize with P2Y12 receptor antagonism in thrombosis. Circulation, 2003. 108(21): p. 2697-703.) Platelets were labeled in situ using rhodamine 6G (0.2 mg/mL) administered through the tail vein 10 min before visualization of the arteries. Vessel-wall injury was triggered by a 1×1-mm filter paper saturated with a 10% FeCl3 solution. After 5 minutes, the filter paper was removed and mesenteric arteries rinsed with warmed saline (37° C.). Platelet vessel-wall interactions were recorded for 40 additional min or until full occlusion occurred and persisted for more than 40 seconds. C57B16J mice were orally gavaged with vehicle control, compound A (0.83, 2.5, 7.5, 20, 60 mg/kg) or betrixaban (2, 4, 10 mg/kg) two hours prior to vascular injury. Thrombosis was analyzed in real time using Simple PCI software. (Andre, P., et al., P2Y12 regulates platelet adhesion/activation, thrombus growth, and thrombus stability in injured arteries. J Clin Invest, 2003. 112(3): p. 398-406.) The fluorescence intensity was recorded at a rate of 2 Hz for 40 minutes and plotted over time. Time to occlusion (cessation of blood flow) is analyzed.
Plasma concentrations of Compound A and betrixaban were determined on blood draw collected 2 min post-occlusion or 42 min after start of vascular injury.

[4] = test system: thrombin generation in platelet rich plasma; assay: Platelet-initiated thrombin generation assay (Example 5); type: cell-based, human; conditions: Compound A alone at 10 μM (FIG. 4)
Procedure: Whole blood from healthy volunteer donors was collected by venipuncture and drawn into 3.2% trisodium citrate (Vacutainer, Becton Dickinson) for anticoagulation. Platelet rich plasma was prepared by centrifugation and the platelet count was adjusted to 150,000/μL. In a 96 well plate, platelets were activated by addition of convulxin (200 ng/mL) and incubation at 37° C. for 3 mins. Subsequent to platelet activation, thrombin generation was initiated by addition of 23 pM tissue factor (Innovin, Dade Behring) and 15 mM calcium. Thrombin activity was monitored by cleavage of the specific fluorogenic substrate (Z-gly-gly-arg-AMC, Bachem) in a fluorescence plate reader.

[5] = test system: platelet thrombus formation on a collagen: tissue factor surface; assay: Perfusion assay on collagen:tissue factor surface (Example 7); type: cell-based; conditions: 10 μM of Compound A; collagen:tissue factor surface (FIG. 6)
[6] = test system: human whole blood perfused over type I collagen (thrombotic process); assay: Real-time perfusion chamber assay, blood of aspirinated donors in factor Xa inhibitor C921-78 (Example 9); type: cell-based; conditions: 0.37 μM Compound A alone, in the absence of aspirin
[7] = Compound A 20 and 60 mg/kg, oral gavage
[8] = Compound A 7.5, 20 and 60 mg/kg, oral gavage

SMILES | plasma concentrations that prevent vascular occlusion ([1]; betrixaban) [µg/mL] | inhibition of platelet aggregation [2] | non-effective doses ([1]; Compound A) | plasma concentration that does not prevent occlusion ([1]; Compound A) | plasma levels that prevent vascular occlusion ([1]; Compound A) [µg/mL] | time to occlusion of the artery ([1]; Compound A 7.5 mg/kg, oral gavage) | occlusion in response to vascular injury over the 40 min observation period [1, 7] | effect in the thrombosis model ([3]; Compound A 0.83 and 2.5 mg/kg, oral gavage 2 h prior to injury) | time for appearance of first thrombus [3, 8] | vascular occlusion (time) [3, 8] | occlusion in response to vascular injury over the 40 min observation period [3, 7] | thrombin generation [4] | inhibition of thrombus formation [5] | antithrombotic activity [6]
COc1ccc(NC(=O)c2ccc(C(=N)N(C)C)cc2)c(C(=O)Nc2ccc(Cl)cn2)c1 [betrixaban, [2-({4-[(dimethylamino)iminomethyl]phenyl}carbonylamino)-5-methoxyphenyl]-N-(5-chloro(2-pyridyl))carboxamide, reference compound] | > 1 | – | – | – | – | – | – | – | – | – | – | – | – | –
CNc1cc2[nH]c(=O)n(-c3ccc(NC(=O)NS(=O)(=O)c4ccc(Cl)s4)cc3)c(=O)c2cc1F [Compound A] | – | significant inhibition of platelet aggregation | below 200 ng/mL | below 1 μg/mL | > 1 | delays time to occlusion | prevent occlusion | non-effective | delayed | delayed | prevented occlusion | substantial level of thrombin generation | did not show inhibition | no detectable antithrombotic activity
